# According to the supplement of paper PMC12067093, “Discovery and optimisation of a covalent ligand for TRIM25 and its application to targeted protein ubiquitination” (Chemical Science, 2025):
# Chains of the proteins cited; added tags and fusions are not shown. Lines headed by an entry give the natural chain unless they say otherwise; changes in a name come on top.
# UniProt Q96RF0: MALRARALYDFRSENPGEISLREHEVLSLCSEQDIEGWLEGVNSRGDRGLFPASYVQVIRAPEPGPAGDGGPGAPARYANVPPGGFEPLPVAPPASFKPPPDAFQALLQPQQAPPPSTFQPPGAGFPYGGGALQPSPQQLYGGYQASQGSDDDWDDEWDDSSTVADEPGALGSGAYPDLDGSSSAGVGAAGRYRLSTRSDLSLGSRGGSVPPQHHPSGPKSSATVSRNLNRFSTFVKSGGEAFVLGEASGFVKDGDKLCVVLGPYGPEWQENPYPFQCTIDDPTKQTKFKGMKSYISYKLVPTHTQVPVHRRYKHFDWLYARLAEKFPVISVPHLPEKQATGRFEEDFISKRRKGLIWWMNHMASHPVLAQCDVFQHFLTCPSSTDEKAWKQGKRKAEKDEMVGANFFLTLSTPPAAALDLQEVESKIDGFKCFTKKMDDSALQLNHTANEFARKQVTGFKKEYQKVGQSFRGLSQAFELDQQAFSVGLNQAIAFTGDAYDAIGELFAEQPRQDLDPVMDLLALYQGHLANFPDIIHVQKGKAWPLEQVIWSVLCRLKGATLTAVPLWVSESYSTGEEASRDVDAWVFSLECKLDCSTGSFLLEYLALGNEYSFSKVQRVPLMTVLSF
# UniProt O60504: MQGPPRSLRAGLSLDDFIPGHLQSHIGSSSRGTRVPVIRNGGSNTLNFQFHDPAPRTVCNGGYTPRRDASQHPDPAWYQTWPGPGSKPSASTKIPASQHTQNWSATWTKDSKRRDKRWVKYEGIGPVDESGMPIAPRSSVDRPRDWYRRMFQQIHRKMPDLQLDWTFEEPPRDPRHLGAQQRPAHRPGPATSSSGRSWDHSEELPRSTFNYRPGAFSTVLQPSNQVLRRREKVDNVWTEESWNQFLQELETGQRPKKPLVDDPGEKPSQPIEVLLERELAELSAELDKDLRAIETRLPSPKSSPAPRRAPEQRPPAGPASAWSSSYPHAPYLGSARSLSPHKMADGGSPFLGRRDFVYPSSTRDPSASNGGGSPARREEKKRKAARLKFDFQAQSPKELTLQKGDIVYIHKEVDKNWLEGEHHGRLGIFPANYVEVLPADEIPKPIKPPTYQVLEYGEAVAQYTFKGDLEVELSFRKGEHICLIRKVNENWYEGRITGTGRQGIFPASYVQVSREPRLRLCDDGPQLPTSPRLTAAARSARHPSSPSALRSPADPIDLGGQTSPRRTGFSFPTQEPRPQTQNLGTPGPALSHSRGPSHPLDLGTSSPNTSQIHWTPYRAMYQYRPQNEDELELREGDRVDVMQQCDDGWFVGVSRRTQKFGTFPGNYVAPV
# UniProt Q9Y5X1: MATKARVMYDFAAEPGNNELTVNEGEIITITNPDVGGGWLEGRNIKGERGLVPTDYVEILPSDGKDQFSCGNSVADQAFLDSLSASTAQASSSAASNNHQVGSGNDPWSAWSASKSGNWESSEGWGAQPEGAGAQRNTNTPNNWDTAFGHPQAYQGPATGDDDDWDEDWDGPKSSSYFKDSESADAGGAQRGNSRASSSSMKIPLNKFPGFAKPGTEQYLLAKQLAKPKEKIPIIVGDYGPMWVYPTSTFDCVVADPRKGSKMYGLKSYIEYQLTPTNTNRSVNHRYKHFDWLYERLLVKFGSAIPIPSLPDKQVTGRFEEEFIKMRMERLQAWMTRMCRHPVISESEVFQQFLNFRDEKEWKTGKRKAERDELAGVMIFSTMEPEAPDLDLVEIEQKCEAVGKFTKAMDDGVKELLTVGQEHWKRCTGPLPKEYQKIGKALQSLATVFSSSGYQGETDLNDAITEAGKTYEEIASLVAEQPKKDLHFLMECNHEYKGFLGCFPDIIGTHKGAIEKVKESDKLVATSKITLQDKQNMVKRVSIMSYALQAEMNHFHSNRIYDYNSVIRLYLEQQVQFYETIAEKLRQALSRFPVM
# UniProt P09132: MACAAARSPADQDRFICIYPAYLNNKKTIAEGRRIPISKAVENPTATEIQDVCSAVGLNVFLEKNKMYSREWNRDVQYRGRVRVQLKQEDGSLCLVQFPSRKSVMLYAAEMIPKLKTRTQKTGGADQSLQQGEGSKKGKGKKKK
# UniProt Q02446, whole entry: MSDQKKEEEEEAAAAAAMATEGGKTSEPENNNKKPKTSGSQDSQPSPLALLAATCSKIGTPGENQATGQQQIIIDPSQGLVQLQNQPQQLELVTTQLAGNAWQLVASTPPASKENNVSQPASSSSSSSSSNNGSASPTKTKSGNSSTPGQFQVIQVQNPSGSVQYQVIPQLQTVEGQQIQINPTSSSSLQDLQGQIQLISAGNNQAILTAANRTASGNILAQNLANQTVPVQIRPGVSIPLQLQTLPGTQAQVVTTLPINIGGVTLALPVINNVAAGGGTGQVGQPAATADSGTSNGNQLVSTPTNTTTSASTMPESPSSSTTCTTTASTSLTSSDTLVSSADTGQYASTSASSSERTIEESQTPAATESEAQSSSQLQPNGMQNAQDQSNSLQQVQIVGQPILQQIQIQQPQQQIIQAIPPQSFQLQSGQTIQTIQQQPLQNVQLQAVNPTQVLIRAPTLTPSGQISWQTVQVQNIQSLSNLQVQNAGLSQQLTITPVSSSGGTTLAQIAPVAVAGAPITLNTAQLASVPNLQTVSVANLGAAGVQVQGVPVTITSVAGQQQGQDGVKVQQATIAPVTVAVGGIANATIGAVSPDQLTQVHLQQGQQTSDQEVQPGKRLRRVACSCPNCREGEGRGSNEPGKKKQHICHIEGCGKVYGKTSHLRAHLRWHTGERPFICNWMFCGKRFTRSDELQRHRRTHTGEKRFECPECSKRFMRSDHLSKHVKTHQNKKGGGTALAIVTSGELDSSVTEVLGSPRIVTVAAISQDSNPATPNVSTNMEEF
# UniProt O15269: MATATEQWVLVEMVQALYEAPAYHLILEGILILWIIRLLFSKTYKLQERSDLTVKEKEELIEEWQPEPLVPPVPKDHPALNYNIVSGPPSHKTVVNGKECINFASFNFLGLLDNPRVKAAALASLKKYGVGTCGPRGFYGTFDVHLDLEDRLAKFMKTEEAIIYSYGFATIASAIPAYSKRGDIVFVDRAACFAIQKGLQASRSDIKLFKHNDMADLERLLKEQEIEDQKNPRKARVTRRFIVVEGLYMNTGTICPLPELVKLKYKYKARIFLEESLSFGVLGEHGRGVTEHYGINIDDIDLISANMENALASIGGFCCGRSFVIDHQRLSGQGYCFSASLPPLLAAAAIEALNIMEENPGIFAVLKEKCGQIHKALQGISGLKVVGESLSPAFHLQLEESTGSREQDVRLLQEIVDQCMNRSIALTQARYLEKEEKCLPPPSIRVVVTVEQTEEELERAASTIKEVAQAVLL
# UniProt P55769: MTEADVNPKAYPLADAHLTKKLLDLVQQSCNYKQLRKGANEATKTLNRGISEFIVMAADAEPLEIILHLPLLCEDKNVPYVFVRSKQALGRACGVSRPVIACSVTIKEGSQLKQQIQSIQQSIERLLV
# UniProt Q8NB90: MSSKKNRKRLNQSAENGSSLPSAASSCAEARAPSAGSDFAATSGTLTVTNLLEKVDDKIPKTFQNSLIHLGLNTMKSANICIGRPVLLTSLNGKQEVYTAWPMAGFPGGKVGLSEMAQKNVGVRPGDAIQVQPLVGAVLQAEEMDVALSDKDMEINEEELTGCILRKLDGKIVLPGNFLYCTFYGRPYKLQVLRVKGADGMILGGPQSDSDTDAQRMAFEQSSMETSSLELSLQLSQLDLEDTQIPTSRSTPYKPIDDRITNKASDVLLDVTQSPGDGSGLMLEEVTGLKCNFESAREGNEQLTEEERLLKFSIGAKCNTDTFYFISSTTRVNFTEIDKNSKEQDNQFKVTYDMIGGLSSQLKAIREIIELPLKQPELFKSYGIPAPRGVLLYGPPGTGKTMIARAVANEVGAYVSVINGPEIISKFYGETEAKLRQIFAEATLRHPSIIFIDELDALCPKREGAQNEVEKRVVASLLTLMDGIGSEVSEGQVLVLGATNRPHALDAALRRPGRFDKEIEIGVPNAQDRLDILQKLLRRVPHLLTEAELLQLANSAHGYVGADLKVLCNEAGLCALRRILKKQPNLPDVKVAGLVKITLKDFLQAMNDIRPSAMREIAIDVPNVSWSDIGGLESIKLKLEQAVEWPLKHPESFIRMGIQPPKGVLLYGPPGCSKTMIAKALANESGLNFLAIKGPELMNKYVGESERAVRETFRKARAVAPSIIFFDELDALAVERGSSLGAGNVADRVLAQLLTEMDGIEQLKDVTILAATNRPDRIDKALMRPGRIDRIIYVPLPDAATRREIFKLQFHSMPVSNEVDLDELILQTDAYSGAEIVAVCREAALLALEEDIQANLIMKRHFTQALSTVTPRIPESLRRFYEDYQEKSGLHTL
# UniProt Q8N9Q2: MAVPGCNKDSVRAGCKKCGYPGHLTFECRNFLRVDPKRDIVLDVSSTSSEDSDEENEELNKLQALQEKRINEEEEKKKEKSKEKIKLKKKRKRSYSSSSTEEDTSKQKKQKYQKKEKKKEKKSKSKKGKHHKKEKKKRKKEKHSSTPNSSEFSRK
# UniProt Q9Y5W7: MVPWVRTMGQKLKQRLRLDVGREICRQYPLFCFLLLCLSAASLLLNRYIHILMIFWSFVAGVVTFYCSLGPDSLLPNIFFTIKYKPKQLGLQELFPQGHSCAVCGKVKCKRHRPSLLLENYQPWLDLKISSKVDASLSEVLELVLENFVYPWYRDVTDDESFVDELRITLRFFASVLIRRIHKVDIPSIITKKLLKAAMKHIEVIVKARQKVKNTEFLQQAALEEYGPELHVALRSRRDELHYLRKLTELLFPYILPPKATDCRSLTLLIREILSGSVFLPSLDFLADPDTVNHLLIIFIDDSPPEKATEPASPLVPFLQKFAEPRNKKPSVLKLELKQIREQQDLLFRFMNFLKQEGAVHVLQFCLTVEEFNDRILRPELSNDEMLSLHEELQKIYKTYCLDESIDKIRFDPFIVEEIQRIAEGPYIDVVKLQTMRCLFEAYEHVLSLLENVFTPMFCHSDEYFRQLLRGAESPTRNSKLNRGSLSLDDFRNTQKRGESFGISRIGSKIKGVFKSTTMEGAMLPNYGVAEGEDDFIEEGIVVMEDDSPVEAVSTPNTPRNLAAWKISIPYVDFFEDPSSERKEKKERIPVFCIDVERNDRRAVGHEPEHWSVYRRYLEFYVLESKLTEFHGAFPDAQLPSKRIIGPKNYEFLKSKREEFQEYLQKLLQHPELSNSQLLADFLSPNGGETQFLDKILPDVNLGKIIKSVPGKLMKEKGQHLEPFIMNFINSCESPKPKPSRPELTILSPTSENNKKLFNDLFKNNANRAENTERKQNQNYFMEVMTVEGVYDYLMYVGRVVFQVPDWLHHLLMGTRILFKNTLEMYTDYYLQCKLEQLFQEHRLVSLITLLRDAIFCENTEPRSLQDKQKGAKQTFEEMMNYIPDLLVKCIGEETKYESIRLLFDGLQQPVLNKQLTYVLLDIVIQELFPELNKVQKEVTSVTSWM
# UniProt Q9Y5X3: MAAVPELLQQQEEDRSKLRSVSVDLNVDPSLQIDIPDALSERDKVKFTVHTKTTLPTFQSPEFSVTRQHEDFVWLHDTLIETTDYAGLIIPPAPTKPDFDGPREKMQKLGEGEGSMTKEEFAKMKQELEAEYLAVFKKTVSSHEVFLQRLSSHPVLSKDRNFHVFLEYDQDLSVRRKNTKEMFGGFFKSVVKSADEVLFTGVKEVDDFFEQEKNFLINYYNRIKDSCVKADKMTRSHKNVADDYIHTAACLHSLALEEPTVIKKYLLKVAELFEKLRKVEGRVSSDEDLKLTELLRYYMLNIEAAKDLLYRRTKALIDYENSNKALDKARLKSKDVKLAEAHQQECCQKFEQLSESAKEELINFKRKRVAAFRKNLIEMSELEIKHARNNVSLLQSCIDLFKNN
# UniProt Q00796: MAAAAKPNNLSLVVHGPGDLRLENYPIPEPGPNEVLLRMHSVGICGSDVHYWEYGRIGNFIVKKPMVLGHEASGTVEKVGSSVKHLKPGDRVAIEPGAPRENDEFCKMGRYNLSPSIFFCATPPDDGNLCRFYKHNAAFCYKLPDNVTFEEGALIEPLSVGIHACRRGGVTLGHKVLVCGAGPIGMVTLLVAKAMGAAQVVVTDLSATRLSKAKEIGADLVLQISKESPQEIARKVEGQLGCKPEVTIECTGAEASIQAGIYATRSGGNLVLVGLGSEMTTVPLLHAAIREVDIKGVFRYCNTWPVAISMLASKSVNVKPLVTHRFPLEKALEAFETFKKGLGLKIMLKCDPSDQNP
# This is one part of the list.
# Compound: Cc1cc(ccc1-c1ccccc1)C(=O)N1CCCN(CC1)C(=O)CCl [compound 10]
# Experiment: probe-labelled cysteine peptide fold change vs DMSO (competition) (log2 fold change); higher = less target engagement (more negative = stronger competition)
# Conditions: 10 µM; THP-1; incubation time: 4 h
# 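Also: competitive profiling in live THP-1 cells: cysteine peptides tagged with an iodoacetamide desthiobiotin (IA-DTB) probe, intensity after compound treatment relative to DMSO-treated cells.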
row,Target,probe-labelled cysteine peptide fold change
1,SNX18_Q96RF0-2_570_CNTISFATLAEIHHFHQIR (UniProt Q96RF0),0.117
2,SORBS3_O60504_482_KGEHICLIR (UniProt O60504),0.166
3,SRC_P12931_248_LTTVCPTSKPQTQGLAK (UniProt P12931),-0.161
4,SNX9_Q9Y5X1_399_CEAVGK (UniProt Q9Y5X1),-0.165
5,SRP19_P09132_53_AVENPTATEIQDVCSAVGLNVFLEK (UniProt P09132),0.00125
6,SP4_Q02446_625_VACSCPNCR (UniProt Q02446),-0.071
7,SPTLC1_O15269_255_FIVVEGLYMNTGTICPLPELVK (UniProt O15269),-0.208
8,SRGAP2_O75044_588_DIFHDLMACVTMDNLQER (UniProt O75044),0.149
9,SNU13_P55769_93_ACGVSRPVIACSVTIK (UniProt P55769),0.0687
10,SPATA5_Q8NB90_672_GVLLYGPPGCSK (UniProt Q8NB90),-0.0625
11,SQOR_Q9Y6N5_127_NCIHTDDDEK (UniProt Q9Y6N5),-0.185
12,SREK1IP1_Q8N9Q2_18_CGYPGHLTFECR (UniProt Q8N9Q2),0.0937
13,SNX14_Q9Y5W7_593_ERIPVFCIDVER (UniProt Q9Y5W7),0.129
14,SNX9_Q9Y5X1_492_DLHFLMECNHEYK (UniProt Q9Y5X1),-0.0414
15,SNX5_Q9Y5X3_346+347_LAEAHQQECCQK (UniProt Q9Y5X3),-0.2
16,SRP72_O76094_128_YDECLAVYR (UniProt O76094),0.162
17,SORD_Q00796_130_YNLSPSIFFCATPPDDGNLCR (UniProt Q00796),0.0585

# Rewritten with bars between the fields: part of the list above
row | Target | probe-labelled cysteine peptide fold change
4 | SNX9_Q9Y5X1_399_CEAVGK (UniProt Q9Y5X1) | -0.165
12 | SREK1IP1_Q8N9Q2_18_CGYPGHLTFECR (UniProt Q8N9Q2) | 0.0937
